From PubChem BioAssay AID504467 (National Center for Advancing Translational Sciences (NCATS), 2011)
Hit rate of the full screen: of about 330,000 compounds, about 7,700 (2.3%) were called active. The shares of active, inactive and inconclusive entries below differ from those in the screen. Calls come from the whole dose curve; as a rule, active = well fitted inhibition curve with a large enough effect; inconclusive = small, poorly fitted or top-dose-only effect, or effect the other way; inactive = flat fitted curve, though single readings scatter. Potencies beside an inconclusive call are fits to weak or partial responses and may not hold up.

Assay: qHTS screen for small molecules that inhibit ELG1-dependent DNA repair in human embryonic kidney (HEK293T) cells expressing luciferase-tagged ELG1; note: nearly all actives have a fitted effect of over 55% in size
Settings: HEK293T ELG1-luciferase reporter, luminescence, 16 h, DNA damage induced by 5-fluorouridine; activity change, negative = inhibition: at 46.1 µM (top of the series)
Method in brief: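 Cells (2,000 per well) received 5-fluorouridine plus test compound or DMSO and were incubated 16 hr at 37 °C, 5% CO2. Luciferase activity was read by luminescence 30 min after ONE-Glo addition; signal suppression marked inhibition of damage-induced ELG1 function.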
% is set by controls: 0 for no effect and ±100 for the full control effect; potency is the fitted concentration of half-maximal effect.

Row | SMILES | Potency | activity change, negative = inhibition
1 | Cc1ccc2c(c1C)NC(=O)CC(c1ccccc1O)=N2 | inconclusive: 10.3 µM [activator, partial curve, poor fit] | 
2 | Cc1sc2nc(-c3cccnc3)[nH]c(=O)c2c1-c1ccccc1 |  | inactive: 0.803%
3 | CCOc1ccccc1NC(=O)C1CCN(S(=O)(=O)c2cccc3cccnc23)CC1 | inconclusive: 18.4 µM [inhibitor, single point] | 
4 | CCCc1ccc(OCc2nc(-c3ccc(NC(=O)c4ccco4)cc3)no2)cc1 | inconclusive: 23.1 µM [activator, partial curve] | 
5 | COC(=O)c1ccc(-c2ccc(/C=N/NC(=O)Cc3nnc(N)s3)o2)cc1 |  | inactive: 0%
6 | Cn1/c(=N/N=C/c2ccccn2)sc2ccccc21 | inconclusive: 2.31 µM [activator, full curve] | 
7 | COc1ccccc1N1CC(C(=O)Nc2ccc(C)c(S(=O)(=O)N3CCOCC3)c2)CC1=O (configuration not stated) |  | inactive: -11.6%
8 | O=C(Nc1ccc(O)c2c(=O)cc(-c3ccccc3Cl)oc12)c1ccccc1Cl | inconclusive: 25.9 µM [inhibitor, single point] | 
9 | CCOC(=O)N1CCC(N2C(=O)c3ccccc3C2Nc2ccc(Cl)cn2)CC1 (configuration not stated) |  | inactive: -26.6%
10 | O=C(Nc1cccc(Br)c1)c1ccc(OC2CSC2)cc1 | inconclusive: 9.2 µM [activator, partial curve] | 
11 | CCn1c(COc2cccc(OC)c2)nnc1SCC(=O)Nc1cc(OC)ccc1OC | inconclusive: 29.1 µM [inhibitor, single point] | 
12 | CCCCCc1ccc(-c2ccc(C(=O)O)cc2)nc1 | inconclusive: 0.291 µM [activator, partial curve] | 
13 | Cc1ccc(-c2cc3cccc[n+]3cc2-c2ccc(C)cc2)cc1 | inconclusive: 29.1 µM [inhibitor, single point] | 
14 | COc1cccc(NC(=O)c2cc3ccccc3cc2OC)c1 | inconclusive: 4.11 µM [activator, full curve] | 
15 | COc1ccccc1N(C)C(=O)c1cc(S(=O)(=O)N2CCc3ccccc32)cn1C |  | inactive: -3.18%
16 | Cc1ccc(/C=N/n2c(COc3ccccc3)n[nH]c2=S)o1 |  | inactive: -13.3%
17 | N#C/C(=C\c1cc2c(cc1Br)OCO2)c1ccc(C(=O)O)cc1 |  | inactive: -9.63%
18 | Cc1ccnc(SCCn2c(N3CCN(Cc4ccccc4)CC3)nc3c2c(=O)[nH]c(=O)n3C)n1 | active: 9.2 µM | 
19 | CCOC(=O)C1=C(c2ccccc2)N=C2SCC(=O)N2C1c1ccc(O)c(OC)c1 (configuration not stated) |  | inconclusive: 43.2% [activator]
20 | O=C(O)c1ccc(Cn2cc(/C=C\[N+](=O)[O-])c3ccccc32)o1 |  | inactive: 2.77%
21 | O=C1c2ccccc2[C@@H]2C[C@@H](O)[C@H](Nc3cccc(Cl)n3)CCN12 | inconclusive: 25.9 µM [inhibitor, single point] | 
22 | NNC(=O)c1cccc(COc2cccc(Br)c2)c1 | inconclusive: 16.4 µM [activator, partial curve] | 
23 | Cc1cc(C(=O)OCCN2C(=O)c3ccccc3C2=O)c2ccccc2n1 | inconclusive: 29.1 µM [inhibitor, single point] | 
24 | O=C(O)CCC(=O)NNC(=O)COc1ccc2ccccc2c1Br |  | inactive: -3.94%

Row | SMILES | Potency | activity change, negative = inhibition
25 | COc1ccc(OC)c(NC(=O)c2ccc3nc(-c4ccccc4)c(-c4ccccc4)nc3c2)c1 | active: 23.1 µM | 
26 | O=C(O)CCn1c(SCc2ccccc2)nc2ccccc21 | inconclusive: 20.6 µM [activator, single point] | 
27 | COc1ccc(CC2CC(=O)N(c3ccc(C)cc3)C2=O)cc1 (configuration not stated) |  | inactive: -0.867%
28 | O=C(CN1CCOCC1)Nc1ccc([N+](=O)[O-])cc1 |  | inactive: 2.33%
29 | Cc1ccc(-n2[nH]c(C)c(/C=N/c3cccc(C)n3)c2=O)cc1 | inconclusive: 29.1 µM [activator, single point] | 
30 | Cc1cccc(Cn2ccc(NC(=O)c3ccc4c(c3)OCO4)n2)c1 |  | inactive: -10.6%
31 | O=C(COC(=O)C1(c2ccc(F)cc2)CCCC1)NCc1ccc2c(c1)OCO2 | inconclusive: 29.1 µM [inhibitor, partial curve, poor fit] | 
32 | CCOc1ccccc1C(=O)NC(C(=O)NCc1ccc(F)cc1)C(C)C (configuration not stated) | inconclusive: 23.1 µM [inhibitor, partial curve, poor fit] | 
33 | COc1ccc(-c2cccc(C(=O)Nc3cccc(C(=O)O)c3)c2)cc1 | inconclusive: 8.2 µM [activator, partial curve] | 
34 | O=C(CSCc1ccccc1)N1CCN(c2ccccc2)CC1 | inconclusive: 18.4 µM [activator, partial curve] | 
35 | O=C(CNc1ccccc1Cl)N/N=C1\CCCc2ccccc21 | inconclusive: 29.1 µM [activator, single point] | 
36 | O=C(C1CCCN(S(=O)(=O)c2ccccc2[N+](=O)[O-])C1)N1CCN(c2ccccc2)CC1 (configuration not stated) | inconclusive: 16.4 µM [inhibitor, single point] | 
37 | COc1ccc(C(=O)COC(=O)/C=C/c2ccccc2[N+](=O)[O-])cc1 |  | inactive: 21.4%
38 | COc1ccc(-c2[nH]ncc2/C=N\NC(=O)c2ccc(Br)o2)cc1OC |  | inactive: -3.39%
39 | CC(=O)c1cccc(NC(=O)c2nc(-c3ccccc3)oc2C)c1 | inconclusive: 18.3 µM [inhibitor, single point] | 
40 | Cc1cc(O)c(CN2CCN(S(=O)(=O)c3cccs3)CC2)cc1C(C)C | active: 11.2 µM | 
41 | CNC(=O)c1ccc(-c2ccc(Cl)c(Cl)c2)s1 | inconclusive: 25.9 µM [activator, single point] | 
42 | O=C(COc1ccc([N+](=O)[O-])cc1)Nc1nc(-c2ccccn2)cs1 |  | inactive: -0.201%
43 | OCCOCCOc1cccc2[nH]ccc12 |  | inactive: 11.8%
44 | COc1ccc(NCc2cc3cc(OC)ccc3[nH]c2=O)cc1 | inconclusive: 20.6 µM [inhibitor, partial curve] | 
45 | CNC(=O)CSc1nc2ccccc2c(=O)n1C1CCCCC1 | inconclusive: 9.2 µM [activator, partial curve, poor fit] | 
46 | Cc1cc2cc(CNC(=O)c3cccc([N+](=O)[O-])c3)ccc2n1C | inconclusive: 18.4 µM [inhibitor, partial curve, poor fit] | 
47 | O=C(NC1CCN(Cc2ccccc2)CC1)C1CCN(S(=O)(=O)c2cccc3nsnc23)CC1 | inconclusive: 1.84 µM [inhibitor, full curve] | 

Reformatted tab-delimited: part of the list above
Row	SMILES	Potency	activity change, negative = inhibition
31	O=C(COC(=O)C1(c2ccc(F)cc2)CCCC1)NCc1ccc2c(c1)OCO2	inconclusive: 29.1 µM [inhibitor, partial curve, poor fit]	
37	COc1ccc(C(=O)COC(=O)/C=C/c2ccccc2[N+](=O)[O-])cc1		inactive: 21.4%
